Values from PubChem BioAssay AID1259424 (University of Nebraska Medical Center, 2018).
Here is one part, drawn at random, of about 14,000 reagents tested. 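Higher correlation or smaller distance means closer resemblance to KSR1 loss; control wells, including KSR1 knockdowns, recur on many plates.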 Further read-outs or replicates are left out here. Not stated in the record: the time to read-out.

- Purpose: 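Find knockdowns that reproduce the expression shifts seen after KSR1 loss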 (primary screen)
- Cells: human HCT116 colon cancer cells
- Knock-down reagent: siRNA pool against human genes, 50 nM
- Measured: 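Six signature mRNAs by branched-DNA multiplex assay, scaled to two housekeeping genes and non-targeting median, log2; matched to mean KSR1 knockdown profile by Pearson correlation and euclidean distance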
- Scale: mean correlation with KSR1 profile: higher = expression change more like KSR1 knockdown; mean distance from KSR1 profile: higher = expression change less like KSR1 knockdown

gene | mean correlation with KSR1 profile | mean distance from KSR1 profile
NFE2L1 | -0.441 | 3.37
NANOG | 0.00685 | 2.8
XRCC1 | 0.368 | 1.41
EDDM3A | 0.0317 | 1.7
MYCL | -0.46 | 2.44
DUS2 | -0.0817 | 0.992
NUP210 | 0.0977 | 2.88
PBOV1 | 0.0417 | 3.75
ZSCAN12 | -0.541 | 1.21
NR5A1 | 0.257 | 1.92
APLN | 0.0924 | 1.42
DEFA3 | 0.0674 | 1.27
MRPL35 | -0.441 | 3.92
KIAA1210 | -0.497 | 1.7
GTF2F1 | -0.346 | 1.7
ANP32E | 0.442 | 1.53
UGT2B4 | 0.392 | 0.91
GARRE1 | 0.0733 | 4.16
PRL | -0.567 | 1.59
PIP4P2 | -0.775 | 1.76
IDE | 0.426 | 1.25
EAF2 | -0.688 | 1.63
KIAA1217 | -0.175 | 1.29
LRRC27 | 0.836 | 0.882
MINDY2 | -0.713 | 3.14
BTD | -0.348 | 1.6

Next part (6 carried over from the part before).
gene | mean correlation with KSR1 profile | mean distance from KSR1 profile
IDE | 0.426 | 1.25
EAF2 | -0.688 | 1.63
KIAA1217 | -0.175 | 1.29
LRRC27 | 0.836 | 0.882
MINDY2 | -0.713 | 3.14
BTD | -0.348 | 1.6
ACSL1 | 0.131 | 2.49
IFI6 | 0.18 | 1.6
IKZF5 | -0.374 | 3.01
ASPA | 0.39 | 1.71
ZSWIM5 | 0.842 | 0.542
ARF6 | 0.802 | 0.936
SPATA31C2 | -0.711 | 6.43
TIMP1 | -0.604 | 2.5
MAP6 | -0.384 | 1.94
BRCC3 | 0.173 | 2.2
LY6G5C | 0.741 | 1.37
CLDN17 | 0.505 | 1.76
FBLN1 | 0.0894 | 1.15
FOXH1 | 0.18 | 1.42
PPP2R5A | -0.543 | 2.41
PPP6C | -0.42 | 2.42
TFEB | -0.601 | 2.04
CELF2 | 0.448 | 2.49
UTP14C | -0.247 | 2.1
MYO1D | 0.192 | 1.11
TCEAL9 | -0.505 | 2.65
RAP1GAP2 | 0.58 | 0.786
MSH6 | 0.688 | 0.981
AP2A1 | 0.264 | 3.2
